In article PMC3709894:

Target: T1, Flag-Rad21 triple mutant (TM) L385A F389A T390A (human) (UniProt O60216)
T1 sequence: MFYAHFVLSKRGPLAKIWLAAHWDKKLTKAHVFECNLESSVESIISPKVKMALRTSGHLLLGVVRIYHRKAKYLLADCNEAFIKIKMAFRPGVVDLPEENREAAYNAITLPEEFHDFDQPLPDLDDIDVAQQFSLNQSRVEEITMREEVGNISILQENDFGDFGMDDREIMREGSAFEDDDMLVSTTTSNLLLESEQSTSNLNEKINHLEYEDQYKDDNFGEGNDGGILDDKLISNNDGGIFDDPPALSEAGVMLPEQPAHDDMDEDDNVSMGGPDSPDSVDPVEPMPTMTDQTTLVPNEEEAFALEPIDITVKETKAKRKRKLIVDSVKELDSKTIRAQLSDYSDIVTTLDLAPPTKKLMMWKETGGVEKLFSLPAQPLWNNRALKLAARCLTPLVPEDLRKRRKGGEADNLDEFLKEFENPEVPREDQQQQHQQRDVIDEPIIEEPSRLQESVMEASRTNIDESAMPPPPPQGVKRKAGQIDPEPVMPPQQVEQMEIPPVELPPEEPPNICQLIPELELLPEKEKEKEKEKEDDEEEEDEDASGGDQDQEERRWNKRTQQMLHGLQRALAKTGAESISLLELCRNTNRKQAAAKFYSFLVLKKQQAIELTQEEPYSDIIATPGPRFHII
Test: co-IP; 293 T cells transfected with pFlag CMV2 Rad21 constructs; IP of Flag-Rad21 (Flag mAb agarose beads) from whole cell lysate, blots of endogenous cohesin subunits and associated proteins

binding: binds
Substance: endogenous Pds5 (human (endogenous in 293 T))

No constants are given. Whether binding was seen depends on the method and setting. Binding seen in cells or lysates may run through a third protein. Binding can be weak; no strength is given. Tags and fused reporters may be left off the sequences shown.
